Reference: the supplement of paper PMC10849652
The other results are listed elsewhere or left out.

Protein sequences, listed by entry. Tags and fused reporters are not part of them. Lines headed by an entry give the natural chain unless they say otherwise; changes in a name come on top.
UniProt Q8WUQ7: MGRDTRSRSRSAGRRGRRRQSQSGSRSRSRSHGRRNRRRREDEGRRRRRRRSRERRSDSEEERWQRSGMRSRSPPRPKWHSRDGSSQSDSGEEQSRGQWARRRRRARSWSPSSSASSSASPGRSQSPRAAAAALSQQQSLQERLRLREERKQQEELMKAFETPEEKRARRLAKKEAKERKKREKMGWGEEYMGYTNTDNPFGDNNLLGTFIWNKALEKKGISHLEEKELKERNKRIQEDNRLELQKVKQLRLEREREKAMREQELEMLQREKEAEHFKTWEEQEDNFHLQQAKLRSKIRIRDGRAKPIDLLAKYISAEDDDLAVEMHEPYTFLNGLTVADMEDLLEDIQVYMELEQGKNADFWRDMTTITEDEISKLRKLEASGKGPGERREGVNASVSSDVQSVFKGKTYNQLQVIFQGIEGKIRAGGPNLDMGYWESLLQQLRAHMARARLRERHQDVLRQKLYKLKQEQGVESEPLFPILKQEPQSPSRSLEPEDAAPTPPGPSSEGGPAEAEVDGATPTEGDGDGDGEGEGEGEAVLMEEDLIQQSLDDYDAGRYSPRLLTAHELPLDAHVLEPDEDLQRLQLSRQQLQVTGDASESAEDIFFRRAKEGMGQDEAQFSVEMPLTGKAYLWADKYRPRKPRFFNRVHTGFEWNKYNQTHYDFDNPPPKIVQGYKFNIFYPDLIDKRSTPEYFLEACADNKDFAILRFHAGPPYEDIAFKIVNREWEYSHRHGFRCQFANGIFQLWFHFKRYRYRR
UniProt P27797, whole entry, looked up: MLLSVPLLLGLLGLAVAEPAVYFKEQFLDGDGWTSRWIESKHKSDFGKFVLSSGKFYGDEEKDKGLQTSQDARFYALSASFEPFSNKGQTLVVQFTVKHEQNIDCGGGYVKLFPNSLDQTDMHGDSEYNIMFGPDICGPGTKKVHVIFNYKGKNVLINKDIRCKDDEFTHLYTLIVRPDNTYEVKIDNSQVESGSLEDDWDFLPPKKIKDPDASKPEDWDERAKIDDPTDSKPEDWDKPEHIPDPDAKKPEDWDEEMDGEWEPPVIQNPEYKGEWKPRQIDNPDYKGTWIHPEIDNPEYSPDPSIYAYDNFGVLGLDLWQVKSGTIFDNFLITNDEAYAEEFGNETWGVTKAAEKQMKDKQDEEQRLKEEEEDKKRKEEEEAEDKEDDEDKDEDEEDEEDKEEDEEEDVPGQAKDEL
UniProt Q14444, whole entry, looked up: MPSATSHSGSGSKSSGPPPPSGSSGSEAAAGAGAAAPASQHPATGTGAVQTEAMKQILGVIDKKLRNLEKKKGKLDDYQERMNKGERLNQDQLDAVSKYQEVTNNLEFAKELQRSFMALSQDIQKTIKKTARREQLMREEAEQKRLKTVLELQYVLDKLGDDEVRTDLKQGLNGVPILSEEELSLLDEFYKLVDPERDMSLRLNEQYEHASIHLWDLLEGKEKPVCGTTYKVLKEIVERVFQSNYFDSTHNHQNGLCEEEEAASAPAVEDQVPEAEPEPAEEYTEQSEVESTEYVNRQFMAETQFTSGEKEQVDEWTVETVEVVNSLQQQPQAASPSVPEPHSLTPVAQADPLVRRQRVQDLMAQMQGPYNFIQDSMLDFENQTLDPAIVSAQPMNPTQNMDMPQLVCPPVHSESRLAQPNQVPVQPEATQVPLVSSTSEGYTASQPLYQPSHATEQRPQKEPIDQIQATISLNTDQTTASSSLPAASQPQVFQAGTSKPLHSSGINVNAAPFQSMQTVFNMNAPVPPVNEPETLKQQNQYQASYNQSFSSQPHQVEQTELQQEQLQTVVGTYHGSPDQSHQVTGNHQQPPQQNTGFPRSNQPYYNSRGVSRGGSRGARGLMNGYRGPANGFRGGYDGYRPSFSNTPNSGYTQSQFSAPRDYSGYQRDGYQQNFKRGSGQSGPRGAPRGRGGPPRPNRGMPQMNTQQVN
UniProt P41223: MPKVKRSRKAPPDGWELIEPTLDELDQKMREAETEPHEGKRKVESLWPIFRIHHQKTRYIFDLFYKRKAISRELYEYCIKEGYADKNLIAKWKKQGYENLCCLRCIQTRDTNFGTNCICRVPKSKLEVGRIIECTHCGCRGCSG
UniProt Q8IYL3: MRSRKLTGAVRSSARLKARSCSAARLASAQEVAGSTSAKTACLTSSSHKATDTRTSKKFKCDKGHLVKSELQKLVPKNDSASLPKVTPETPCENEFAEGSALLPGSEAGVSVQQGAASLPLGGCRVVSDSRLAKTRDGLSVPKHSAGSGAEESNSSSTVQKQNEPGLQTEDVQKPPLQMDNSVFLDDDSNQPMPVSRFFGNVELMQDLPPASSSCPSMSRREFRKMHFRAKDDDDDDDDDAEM
UniProt P35613: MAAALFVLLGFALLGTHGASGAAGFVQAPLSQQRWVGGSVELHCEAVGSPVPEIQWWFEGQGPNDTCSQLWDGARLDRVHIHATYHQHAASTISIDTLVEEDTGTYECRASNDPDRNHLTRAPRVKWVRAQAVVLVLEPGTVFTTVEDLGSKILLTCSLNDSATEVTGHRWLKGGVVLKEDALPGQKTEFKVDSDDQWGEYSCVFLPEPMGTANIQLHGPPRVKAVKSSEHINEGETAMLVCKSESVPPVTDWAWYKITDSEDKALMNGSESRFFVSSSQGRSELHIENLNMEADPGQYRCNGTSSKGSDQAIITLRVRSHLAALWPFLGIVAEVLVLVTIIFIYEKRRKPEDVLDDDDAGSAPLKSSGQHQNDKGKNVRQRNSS
UniProt Q8IXQ3: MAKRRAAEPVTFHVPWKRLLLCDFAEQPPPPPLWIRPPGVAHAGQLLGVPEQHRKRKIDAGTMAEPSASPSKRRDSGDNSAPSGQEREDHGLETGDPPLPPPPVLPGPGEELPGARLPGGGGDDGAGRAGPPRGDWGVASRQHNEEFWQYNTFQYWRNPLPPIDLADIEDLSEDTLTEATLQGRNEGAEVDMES
UniProt Q86VP6: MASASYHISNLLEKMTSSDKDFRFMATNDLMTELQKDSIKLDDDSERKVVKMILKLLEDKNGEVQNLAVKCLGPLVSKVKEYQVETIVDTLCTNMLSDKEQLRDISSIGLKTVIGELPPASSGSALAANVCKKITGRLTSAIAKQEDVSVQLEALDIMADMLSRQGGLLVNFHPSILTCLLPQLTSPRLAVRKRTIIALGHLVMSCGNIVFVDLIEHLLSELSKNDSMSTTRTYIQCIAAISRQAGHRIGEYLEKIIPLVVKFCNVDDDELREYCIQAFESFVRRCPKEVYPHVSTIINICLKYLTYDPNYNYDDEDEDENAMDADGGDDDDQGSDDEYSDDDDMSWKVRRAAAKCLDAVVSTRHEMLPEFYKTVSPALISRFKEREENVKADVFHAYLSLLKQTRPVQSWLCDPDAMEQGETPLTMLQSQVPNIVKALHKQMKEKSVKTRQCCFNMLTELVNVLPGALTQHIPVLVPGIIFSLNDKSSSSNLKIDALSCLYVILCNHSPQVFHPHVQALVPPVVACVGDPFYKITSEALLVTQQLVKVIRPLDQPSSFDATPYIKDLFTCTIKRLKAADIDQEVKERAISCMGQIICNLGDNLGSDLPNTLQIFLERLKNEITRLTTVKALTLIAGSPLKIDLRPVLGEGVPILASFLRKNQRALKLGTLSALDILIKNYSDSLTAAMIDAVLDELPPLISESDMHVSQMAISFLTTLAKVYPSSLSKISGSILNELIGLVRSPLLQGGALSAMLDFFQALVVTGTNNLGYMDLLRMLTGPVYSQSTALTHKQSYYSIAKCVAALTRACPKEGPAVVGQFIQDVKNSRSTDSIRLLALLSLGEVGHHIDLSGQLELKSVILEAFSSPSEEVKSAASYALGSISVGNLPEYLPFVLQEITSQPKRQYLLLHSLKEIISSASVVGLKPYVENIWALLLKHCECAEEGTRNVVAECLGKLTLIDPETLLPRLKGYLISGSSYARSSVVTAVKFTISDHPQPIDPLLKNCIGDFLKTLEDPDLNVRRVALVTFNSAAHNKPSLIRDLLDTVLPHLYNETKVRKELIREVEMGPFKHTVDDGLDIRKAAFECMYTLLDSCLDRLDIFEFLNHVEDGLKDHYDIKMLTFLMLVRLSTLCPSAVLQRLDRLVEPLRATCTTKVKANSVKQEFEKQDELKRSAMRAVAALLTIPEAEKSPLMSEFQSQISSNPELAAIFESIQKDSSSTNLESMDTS
UniProt O43852: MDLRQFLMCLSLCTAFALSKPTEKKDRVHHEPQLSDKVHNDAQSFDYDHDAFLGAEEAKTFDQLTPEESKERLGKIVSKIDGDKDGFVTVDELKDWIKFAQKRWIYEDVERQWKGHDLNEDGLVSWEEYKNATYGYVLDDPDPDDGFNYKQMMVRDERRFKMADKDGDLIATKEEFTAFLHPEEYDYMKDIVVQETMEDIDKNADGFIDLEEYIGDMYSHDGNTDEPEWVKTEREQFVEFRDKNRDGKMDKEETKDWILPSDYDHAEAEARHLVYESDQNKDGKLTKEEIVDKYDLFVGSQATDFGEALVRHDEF
UniProt Q9P1Z2: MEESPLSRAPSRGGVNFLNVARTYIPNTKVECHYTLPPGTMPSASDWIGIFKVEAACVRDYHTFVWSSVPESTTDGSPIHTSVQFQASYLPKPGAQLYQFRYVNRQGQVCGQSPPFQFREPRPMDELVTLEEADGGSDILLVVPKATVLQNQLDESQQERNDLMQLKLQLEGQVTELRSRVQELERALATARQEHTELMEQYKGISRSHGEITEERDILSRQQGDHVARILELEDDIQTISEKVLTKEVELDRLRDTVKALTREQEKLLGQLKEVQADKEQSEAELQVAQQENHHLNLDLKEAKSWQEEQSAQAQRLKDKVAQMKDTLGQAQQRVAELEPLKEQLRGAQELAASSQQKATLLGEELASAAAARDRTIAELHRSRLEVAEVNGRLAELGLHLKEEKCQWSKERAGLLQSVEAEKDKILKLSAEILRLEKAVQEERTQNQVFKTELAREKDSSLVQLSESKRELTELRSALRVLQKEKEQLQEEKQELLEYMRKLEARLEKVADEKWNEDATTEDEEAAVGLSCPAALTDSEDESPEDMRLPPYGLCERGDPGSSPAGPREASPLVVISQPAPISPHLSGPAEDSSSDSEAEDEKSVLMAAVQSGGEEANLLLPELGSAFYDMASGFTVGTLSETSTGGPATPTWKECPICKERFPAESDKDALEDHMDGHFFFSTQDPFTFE
UniProt Q9BV19: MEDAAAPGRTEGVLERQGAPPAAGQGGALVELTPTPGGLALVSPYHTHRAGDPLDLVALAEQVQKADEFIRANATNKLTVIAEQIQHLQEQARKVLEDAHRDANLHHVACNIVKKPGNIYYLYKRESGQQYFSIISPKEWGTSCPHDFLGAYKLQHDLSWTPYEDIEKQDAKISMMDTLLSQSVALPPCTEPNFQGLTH
UniProt O43684, whole entry, looked up: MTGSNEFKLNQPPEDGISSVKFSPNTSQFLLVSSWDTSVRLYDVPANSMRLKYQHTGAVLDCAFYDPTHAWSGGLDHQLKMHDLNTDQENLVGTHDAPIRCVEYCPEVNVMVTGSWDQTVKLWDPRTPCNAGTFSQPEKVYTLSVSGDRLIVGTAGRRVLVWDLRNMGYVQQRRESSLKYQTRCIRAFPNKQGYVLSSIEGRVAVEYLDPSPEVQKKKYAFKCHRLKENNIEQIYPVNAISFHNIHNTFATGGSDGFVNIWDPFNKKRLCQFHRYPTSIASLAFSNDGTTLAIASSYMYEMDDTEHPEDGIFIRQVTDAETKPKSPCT
UniProt Q6ZSJ8: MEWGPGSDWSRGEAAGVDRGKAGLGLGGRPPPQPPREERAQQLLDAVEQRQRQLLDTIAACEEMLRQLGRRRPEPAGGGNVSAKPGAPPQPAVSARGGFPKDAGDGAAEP
UniProt Q9H0W9: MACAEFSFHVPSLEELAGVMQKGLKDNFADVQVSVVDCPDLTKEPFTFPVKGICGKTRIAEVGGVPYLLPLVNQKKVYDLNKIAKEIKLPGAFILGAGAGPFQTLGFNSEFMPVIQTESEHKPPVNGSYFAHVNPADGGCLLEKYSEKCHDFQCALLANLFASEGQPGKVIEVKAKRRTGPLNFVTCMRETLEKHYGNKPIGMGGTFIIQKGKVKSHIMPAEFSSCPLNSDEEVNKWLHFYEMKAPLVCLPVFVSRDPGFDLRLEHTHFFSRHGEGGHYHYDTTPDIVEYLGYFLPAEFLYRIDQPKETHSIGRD
UniProt Q8WVQ1: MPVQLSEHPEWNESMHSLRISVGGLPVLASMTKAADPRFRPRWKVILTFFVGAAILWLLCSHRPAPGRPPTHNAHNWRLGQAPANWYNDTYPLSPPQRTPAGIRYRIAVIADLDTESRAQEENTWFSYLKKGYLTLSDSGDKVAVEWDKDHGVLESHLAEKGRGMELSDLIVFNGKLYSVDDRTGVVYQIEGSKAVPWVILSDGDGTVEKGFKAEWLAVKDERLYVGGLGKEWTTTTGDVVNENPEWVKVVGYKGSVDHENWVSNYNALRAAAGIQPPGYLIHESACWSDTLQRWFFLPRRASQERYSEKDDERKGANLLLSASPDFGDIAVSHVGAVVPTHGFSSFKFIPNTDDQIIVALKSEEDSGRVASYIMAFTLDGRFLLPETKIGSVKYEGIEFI

Legend:
Assay in all cases: log2 fold change, soluble protein after heating vs DMSO (PISA); higher = thermal stabilisation; K562 cells, 10 uM, 30 min; active = over 0.2 and 3.5 SD of the protein, either way, in both replicates (recomputed)
[1] = compound: CC[C@@H]1C(=O)N(C)c2cnc(Nc3ccc(C(=O)NC4CCN(C)CC4)cc3OC)nc2N1C1CCCC1
In short: (§1)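 Soluble protein was quantified by TMTpro 16plex LC-MS/MS after channel sums were equalised. It was obtained as the supernatant after 21,000xg for 90 min from pooled aliquots of K562 cells (2×10^6 cells/mL, 10 μM compound, 30 min) heated for 3 min across 48°C-58°C and extracted in PBS with 0.5% NP-40 at 4°C. Thermal stability values are relative to control samples and come from duplicates. They are given as log2 fold changes.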

volasertib = compound: CC[C@@H]1C(=O)N(C)c2cnc(Nc3ccc(C(=O)N[C@H]4CC[C@H](N5CCN(CC6CC6)CC5)CC4)cc3OC)nc2N1C(C)C [volasertib]
In short: as §1

[2] = compound: CC[C@H](C)N1C=C(C2=C(C=C(C=C21)C3=CN=C(C=C3)N4CCNCC4)C(=O)NCC5=C(C=C(NC5=O)C)C)C
In short: as §1

epoxomicin = compound: CC[C@H](C)[C@@H](C(=O)N[C@@H]([C@@H](C)O)C(=O)N[C@@H](CC(C)C)C(=O)[C@]1(CO1)C)NC(=O)[C@H]([C@@H](C)CC)N(C)C(=O)C [epoxomicin]
In short: as §1

[3] = compound: CCn1c(C(=O)N(C2CC2)C2CC2)cc2c3c(ncn3C)c(Nc3cc(C)n(C)n3)nc21
In short: as §1

[4] = compound: CCn1cc(-c2ccnc3[nH]c(-c4cccc(CN(C)C)c4)cc23)c(-c2ccc(NC(=O)N(C)C)cc2)n1
In short: as §1

[5] = compound: CN(C)CC(=O)Nc1ccc2[nH]c(=O)c3ccccc3c2c1
In short: as §1

rosiglitazone = compound: CN(CCOC1=CC=C(C=C1)C[C@H]2C(=O)NC(=O)S2)C3=CC=CC=N3 (racemic) [rosiglitazone]
In short: as §1

[6] = compound: CN1C2=C(C3=C1C(=O)N(N=C3)CC4=CC(=CC=C4)N)SC(=C2)S(=O)C
In short: as §1

[7] = compound: CN1CCC(CNc2ccc3ncc(-c4cccc(OC(F)(F)F)c4)n3n2)CC1
In short: as §1

Measured: log2 fold change

C7 (UniProt P10643)
inactive: [1] 0.041 | volasertib -0.049 | [2] -0.119 | epoxomicin -0.237 | [3] 0.035 | [4] 0.186 | [5] -0.156 | rosiglitazone 0.094 | [6] 0.258 | [7] -0.089

CACTIN isoform 2 (UniProt Q8WUQ7)
inactive: [1] -0.048 | volasertib -0.213 | [2] 0.008 | epoxomicin 0.072 | [3] 0.037 | [4] 0.035 | [5] -0.019 | rosiglitazone 0.057 | [6] 0.019 | [7] -0.151

CALR (UniProt P27797)
inactive: [1] -0.021 | volasertib -0.07 | [2] 0.018 | epoxomicin 0.019 | [3] 0.06 | [4] 0.009 | [5] -0.049 | rosiglitazone -0.046 | [6] 0.008 | [7] 0.081

CAPRIN1 (UniProt Q14444)
inactive: [1] 0.204 | volasertib 0.261 | [2] -0.005 | epoxomicin -0.203 | [3] 0.037 | [4] 0.109 | [5] -0.096 | rosiglitazone -0.114 | [6] 0.169 | [7] 0.145

C1orf109 (UniProt Q9NX04)
inactive: [1] 0.037 | volasertib 0.079 | [2] -0.053 | epoxomicin 0.12 | [3] -0.062 | [4] -0.012 | [5] -0.085 | rosiglitazone -0.026 | [6] 0.002 | [7] 0.121

BUD31 (UniProt P41223)
inactive: [1] 0.044 | volasertib -0.057 | [2] 0.087 | epoxomicin 0.059 | [3] -0.028 | [4] -0.056 | [5] 0.013 | rosiglitazone -0.008 | [6] -0.035 | [7] -0.053

CAPN2 (UniProt P17655)
inactive: [1] 0.018 | volasertib 0.048 | [2] 0.014 | epoxomicin 0.032 | [3] -0.002 | [4] -0.074 | [5] 0 | rosiglitazone -0.014 | [6] -0.052 | [7] -0.087

C1orf174 (UniProt Q8IYL3)
inactive: [1] 0.216 | volasertib 0.061 | [2] 0.039 | epoxomicin -0.054 | [3] -0.009 | [4] 0.072 | [5] -0.037 | rosiglitazone -0.01 | [6] -0.06 | [7] 0.072

BSG (UniProt P35613)
inactive: [1] 0.079 | volasertib 0.061 | [2] -0.036 | epoxomicin -0.004 | [3] 0.084 | [4] -0.008 | [5] -0.018 | rosiglitazone -0.01 | [6] -0.042 | [7] 0.162

C9orf40 (UniProt Q8IXQ3)
inactive: [1] -0.018 | volasertib 0.114 | [2] -0.082 | epoxomicin -0.019 | [3] -0.003 | [4] -0.121 | [5] -0.024 | rosiglitazone 0.037 | [6] 0.059 | [7] -0.013

CAND1 (UniProt Q86VP6)
inactive: [1] 0.008 | volasertib -0.044 | [2] -0.021 | epoxomicin 0.03 | [3] 0.013 | [4] -0.029 | [5] -0.011 | rosiglitazone -0.014 | [6] -0.046 | [7] -0.025

CALU isoform 4 (UniProt O43852)
inactive: [1] 0.076 | volasertib 0.042 | [2] -0.041 | epoxomicin 0.007 | [3] 0.004 | [4] 0.013 | [5] -0.026 | rosiglitazone -0.002 | [6] -0.032 | [7] -0.065

CALCOCO1 (UniProt Q9P1Z2)
inactive: [1] -0.082 | volasertib -0.101 | [2] 0.068 | epoxomicin -0.092 | [3] -0.037 | [4] 0.088 | [5] 0.037 | rosiglitazone 0.114 | [6] -0.025 | [7] 0.148

C1orf50 (UniProt Q9BV19)
inactive: [1] 0.066 | volasertib 0.005 | [2] -0.071 | epoxomicin 0.245 | [3] -0.066 | [4] -0.141 | [5] 0.062 | rosiglitazone -0.035 | [6] 0.088 | [7] 0.108

C18orf25 isoform 2 (UniProt Q96B23)
inactive: [1] 0.016 | volasertib 0.047 | [2] -0.039 | epoxomicin -0.028 | [3] -0.03 | [4] -0.146 | [5] 0.018 | rosiglitazone 0.025 | [6] -0.027 | [7] 0.152

C12orf29 (UniProt Q8N999)
inactive: [1] -0.011 | volasertib -0.034 | [2] -0.01 | epoxomicin -0.005 | [3] -0.028 | [4] -0.02 | [5] -0.045 | rosiglitazone 0.008 | [6] 0.03 | [7] -0.025

CALU isoform 3 (UniProt O43852)
inactive: [1] 0.001 | volasertib 0.05 | [2] -0.058 | epoxomicin -0.031 | [3] 0.027 | [4] -0.023 | [5] -0.051 | rosiglitazone -0.019 | [6] -0.006 | [7] 0.034

C9orf78 (UniProt Q9NZ63)
inactive: [1] -0.003 | volasertib 0.06 | [2] -0.041 | epoxomicin 0.057 | [3] 0.025 | [4] 0.024 | [5] -0.026 | rosiglitazone -0.036 | [6] -0.029 | [7] -0.013

Looked up one by one from above (2):
C9orf78 (UniProt Q9NZ63)
inactive: [1] -0.003 | volasertib 0.06 | [2] -0.041 | epoxomicin 0.057 | [3] 0.025 | [4] 0.024 | [5] -0.026 | rosiglitazone -0.036 | [6] -0.029 | [7] -0.013

C1orf50 (UniProt Q9BV19)
inactive: [1] 0.066 | volasertib 0.005 | [2] -0.071 | epoxomicin 0.245 | [3] -0.066 | [4] -0.141 | [5] 0.062 | rosiglitazone -0.035 | [6] 0.088 | [7] 0.108

Going on with the list.

CAMLG (UniProt P49069)
inactive: [1] -0.082 | volasertib 0.055 | [2] -0.014 | epoxomicin -0.007 | [3] -0.082 | [4] -0.017 | [5] -0.007 | rosiglitazone 0.012 | [6] -0.016 | [7] -0.02

CAPZA2 (UniProt P47755)
inactive: [1] 0.013 | volasertib -0.046 | [2] -0.006 | epoxomicin -0.002 | [3] -0.012 | [4] -0.035 | [5] 0.016 | rosiglitazone 0.003 | [6] -0.059 | [7] 0.006

CANX isoform 2 (UniProt P27824)
inactive: [1] -0.017 | volasertib -0.012 | [2] 0.008 | epoxomicin 0.011 | [3] 0.025 | [4] 0.063 | [5] -0.002 | rosiglitazone -0.024 | [6] 0.037 | [7] 0.08

BUB3 (UniProt O43684)
inactive: [1] 0.051 | volasertib 0.012 | [2] -0.004 | epoxomicin 0 | [3] -0.014 | [4] -0.014 | [5] -0.03 | rosiglitazone 0.013 | [6] -0.051 | [7] 0

C1orf122 (UniProt Q6ZSJ8)
inactive: [1] 0.108 | volasertib 0.025 | [2] -0.004 | epoxomicin 0.074 | [3] -0.057 | [4] 0.148 | [5] -0.007 | rosiglitazone 0.058 | [6] -0.061 | [7] -0.036

CALM2 (UniProt P0DP24)
inactive: [1] 0.024 | volasertib 0.184 | [2] 0.004 | epoxomicin 0.036 | [3] 0.023 | [4] -0.044 | [5] -0.022 | rosiglitazone -0.067 | [6] -0.054 | [7] 0.036

C11orf54 (UniProt Q9H0W9)
inactive: [1] 0.011 | volasertib 0.069 | [2] 0.02 | epoxomicin -0.063 | [3] 0.036 | [4] -0.069 | [5] 0.035 | rosiglitazone 0.007 | [6] -0.002 | [7] -0.102

C2CD2L (UniProt O14523)
inactive: [1] 0 | volasertib -0.039 | [2] -0.052 | epoxomicin -0.049 | [3] 0.007 | [4] 0.038 | [5] -0.041 | rosiglitazone -0.014 | [6] -0.006 | [7] -0.099

C12orf73 (UniProt Q69YU5)
inactive: [1] 0.047 | volasertib -0.146 | [2] -0.052 | epoxomicin -0.04 | [3] 0.023 | [4] 0.099 | [5] -0.115 | rosiglitazone -0.016 | [6] -0.179 | [7] 0.212

CANT1 (UniProt Q8WVQ1)
inactive: [1] -0.097 | volasertib -0.061 | [2] 0.008 | epoxomicin -0.007 | [3] -0.003 | [4] -0.019 | [5] 0.014 | rosiglitazone 0.054 | [6] -0.024 | [7] -0.011

C18orf25 (UniProt Q96B23)
inactive: [1] -0.037 | volasertib -0.015 | [2] -0.021 | epoxomicin -0.032 | [3] -0.033 | [4] 0.022 | [5] 0.018 | rosiglitazone -0.045 | [6] -0.092 | [7] -0.036
